The target of test [1] is T1, AtSAUR32 (SMALL AUXIN UP RNA32 protein), pGBKT7 bait fusion (Arabidopsis thaliana) (UniProt Q9ZUZ3).
T1 sequence: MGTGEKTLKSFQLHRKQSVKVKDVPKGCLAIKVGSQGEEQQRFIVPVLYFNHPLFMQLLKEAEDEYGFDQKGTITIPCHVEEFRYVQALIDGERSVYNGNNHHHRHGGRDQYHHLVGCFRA
Kind of test: two-hybrid; bait in pGBKT7, prey in pGADT7, yeast strain AH109; growth on SD/-Leu-Trp-His-Ade dropout medium, 30°C for 3 days.

In test [2] the target is T2, AtSAUR32 fused with N-YFP (BiFC construct) (Arabidopsis thaliana) (UniProt Q9ZUZ3).
T2 sequence: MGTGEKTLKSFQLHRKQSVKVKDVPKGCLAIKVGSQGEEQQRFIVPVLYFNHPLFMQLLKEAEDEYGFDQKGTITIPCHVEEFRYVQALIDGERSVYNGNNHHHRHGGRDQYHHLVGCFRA
Kind of test: split reporter; BiFC with N-YFP and C-YFP fusions co-infiltrated into Nicotiana benthamiana by Agrobacterium; confocal microscopy 48 h after co-infiltration.

Results are given in words; binding and its absence hold for the method and conditions named. For some of these results: In cells and extracts the contact can be indirect. Some binding calls cover weakened binding; strength is not graded here. Tags and fused reporters may be left off the sequences shown.

B1: HAI1 (HIGHLY ABA-INDUCED 1), clade-A PP2C, pGADT7 prey fusion (protein, UniProt Q9FIF5 1-413)
chain: MAEICYENETMMIETTATVVKKATTTTRRRERSSSQAARRRRMEIRRFKFVSGEQEPVFVDGDLQRRRRRESTVAASTSTVFYETAKEVVVLCESLSSTVVALPDPEAYPKYGVASVCGRRREMEDAVAVHPFFSRHQTEYSSTGFHYCGVYDGHGCSHVAMKCRERLHELVREEFEADADWEKSMARSFTRMDMEVVALNADGAAKCRCELQRPDCDAVGSTAVVSVLTPEKIIVANCGDSRAVLCRNGKAIALSSDHKPDRPDELDRIQAAGGRVIYWDGPRVLGVLAMSRAIGDNYLKPYVISRPEVTVTDRANGDDFLILASDGLWDVVSNETACSVVRMCLRGKVNGQVSSSPEREMTGVGAGNVVVGGGDLPDKACEEASLLLTRLALARQSSDNVSVVVVDLRRDT
As for B1, the binding entry in test [1] is on record as “binds”.

B2: HAI1 fused with C-YFP (BiFC construct) (protein, UniProt Q9FIF5 1-413)
chain: MAEICYENETMMIETTATVVKKATTTTRRRERSSSQAARRRRMEIRRFKFVSGEQEPVFVDGDLQRRRRRESTVAASTSTVFYETAKEVVVLCESLSSTVVALPDPEAYPKYGVASVCGRRREMEDAVAVHPFFSRHQTEYSSTGFHYCGVYDGHGCSHVAMKCRERLHELVREEFEADADWEKSMARSFTRMDMEVVALNADGAAKCRCELQRPDCDAVGSTAVVSVLTPEKIIVANCGDSRAVLCRNGKAIALSSDHKPDRPDELDRIQAAGGRVIYWDGPRVLGVLAMSRAIGDNYLKPYVISRPEVTVTDRANGDDFLILASDGLWDVVSNETACSVVRMCLRGKVNGQVSSSPEREMTGVGAGNVVVGGGDLPDKACEEASLLLTRLALARQSSDNVSVVVVDLRRDT
Regarding B2, the binding result in test [2] is reported as “binds”.

B3: AIP1 (AKT1-Interacting Phosphatase1), clade-A PP2C, pGADT7 prey fusion (protein, UniProt Q9LNW3 1-442)
chain: MADICYEDETSACESRPLWSSRKWRIGVQRFRMSPSEMNPTASTTEEEDKSEGIYNKRNKQEEYDFMNCASSSPSQSSPEEESVSLEDSDVSISDGNSSVNDVAVIPSKKTVKETDLRPRYGVASVCGRRRDMEDAVALHPSFVRKQTEFSRTRWHYFGVYDGHGCSHVAARCKERLHELVQEEALSDKKEEWKKMMERSFTRMDKEVVRWGETVMSANCRCELQTPDCDAVGSTAVVSVITPEKIIVANCGDSRAVLCRNGKAVPLSTDHKPDRPDELDRIQEAGGRVIYWDGARVLGVLAMSRAIGDNYLKPYVTSEPEVTVTDRTEEDEFLILATDGLWDVVTNEAACTMVRMCLNRKSGRGRRRGETQTPGRRSEEEGKEEEEKVVGSRKNGKRGEITDKACTEASVLLTKLALAKHSSDNVSVVVIDLRRRRKRHVA
On to B3, for which, in test [1], the binding result is on record as “binds”.

B4: AIP1 fused with C-YFP (BiFC construct) (protein, UniProt Q9LNW3 1-442)
chain: MADICYEDETSACESRPLWSSRKWRIGVQRFRMSPSEMNPTASTTEEEDKSEGIYNKRNKQEEYDFMNCASSSPSQSSPEEESVSLEDSDVSISDGNSSVNDVAVIPSKKTVKETDLRPRYGVASVCGRRRDMEDAVALHPSFVRKQTEFSRTRWHYFGVYDGHGCSHVAARCKERLHELVQEEALSDKKEEWKKMMERSFTRMDKEVVRWGETVMSANCRCELQTPDCDAVGSTAVVSVITPEKIIVANCGDSRAVLCRNGKAVPLSTDHKPDRPDELDRIQEAGGRVIYWDGARVLGVLAMSRAIGDNYLKPYVTSEPEVTVTDRTEEDEFLILATDGLWDVVTNEAACTMVRMCLNRKSGRGRRRGETQTPGRRSEEEGKEEEEKVVGSRKNGKRGEITDKACTEASVLLTKLALAKHSSDNVSVVVIDLRRRRKRHVA
On to B4, for which, in test [2], the binding entry is “binds”.

The values are drawn from PMC7994887.
